We go through 1 substance from paper PMC5147049.

By UniProt entry, the sequences of proteins in these tests, tags left out.
UniProt G3H1G2: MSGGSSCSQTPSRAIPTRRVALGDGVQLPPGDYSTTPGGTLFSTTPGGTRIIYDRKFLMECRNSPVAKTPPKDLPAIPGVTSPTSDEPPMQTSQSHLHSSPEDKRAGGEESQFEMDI

Results are given in words; binding and its absence hold for the method and conditions named. Binding seen in cells or lysates may run through a third protein. Some binding calls cover weakened binding; strength is not graded here.

For this experiment, the target named is eukaryotic translation initiation factor 4E (eIF4E), endogenous in GS-CHOK1 cells (Chinese hamster (endogenous in GS-CHOK1 cells)). As to the kind of experiment: pull-down; m7GTP-agarose beads (Jena Bioscience) incubated with fresh CHO cell extracts (Null8, CHO42, CHO52, CHO137; different days of batch culture) in 1% Triton X-100, 1 mM EDTA, 50 mM Tris-Cl, 0.1% beta-mercaptoethanol, protease/phosphatase inhibitors, 4°C, 2 h; washed three times with cold PBS; input and bound fractions analysed by SDS-PAGE and western blot. (In western blotting, separated proteins are transferred to a membrane and probed.)

For “eukaryotic initiation factor 4E-binding protein 1 (4E-BP1), endogenous in GS-CHOK1 cells (from UniProt G3H1G2 1-117)”, the binding result is “binds”.
